Assay results from patent publication US20240139333A1, “2,6-DICHLOROPHENYL ESTER COMPOUNDS AND USE THEREOF” (Fusion Pharmaceuticals Inc., priority 2021, published 2024).

How the values were obtained:
[1] = Comparative active ester reactivity study with HOPO nucleophile; settings: 1,2-HOPO 1 eq., 22±2° C.
Procedure: (§1) General Experimental Protocol for Comparative Active Ester Reactivity Study with HOPO or HOA Nucleophiles
(§2) To a 4 mL scintillation vial containing Compound A-E (in respective experiments; 1 eq.) was added a stir bar followed by 150 μL of HPLC grade acetonitrile. In another 4 mL scintillation vial containing a respective nucleophile (1 eq.) was added 280 μL HPLC grade water. The solutions were combined and allowed to stir at room temperature (22±2° C.) for 4 hours. Timed aliquots at time (T)=15, 30, 60, 120 and 240 minutes were taken and analyzed by HPLC-MS using elution method 1 (Table 1).

[2] = Comparative active ester reactivity study with HOA nucleophile (benzhydroxamic acid); settings: Benzhydroxamic Acid 1 eq., 22±2° C.
Procedure: as §1, §2

[3] = Comparative active ester reactivity study with HOA nucleophile (N-hydroxy-N-methylbenzamide); settings: N-Hydroxy-N-methylbenzamide 1 eq., 22±2° C.
Procedure: as §1, §2

[4] = Nucleophilic reactivity study with L-Lysine; settings: L-Lysine 5 equiv, 22±2° C.
Procedure: General Experimental Protocol for Nucleophilic Reactivity Study with L-Lysine
To a 4 mL scintillation vial containing Compound A-E (in respective experiments; 1 eq.) was added a stir bar followed by 70 μL of HPLC grade acetonitrile. In another 4 mL scintillation vial containing L-Lysine monohydrochloride (5 eq.) was added 130 μL HPLC grade water followed by diisopropylethylamine (5 eq.). The solutions were combined and allowed to stir at room temperature (22±2° C.). Timed aliquots at time (T)=15, 30, 60 and 120 minutes were taken and analyzed by HPLC-MS using elution method 1 (Table 2).

Structure (SMILES) | % Nucleophilic Substitution Product ([1]; 15 min) | % Nucleophilic Substitution Product ([1]; 30 min) | % Nucleophilic Substitution Product ([1]; 60 min) | % Nucleophilic Substitution Product ([1]; 120 min) | % Nucleophilic Substitution Product ([1]; 240 min) | % Nucleophilic Substitution Product ([2]; 15 min) | % Nucleophilic Substitution Product ([2]; 30 min) | % Nucleophilic Substitution Product ([2]; 60 min) | % Nucleophilic Substitution Product ([2]; 120 min) | % Nucleophilic Substitution Product ([2]; 240 min) | % Nucleophilic Substitution Product ([3]; 15 min) | % Nucleophilic Substitution Product ([3]; 30 min) | % Nucleophilic Substitution Product ([3]; 60 min) | % Nucleophilic Substitution Product ([3]; 120 min) | % Nucleophilic Substitution Product ([3]; 240 min) | % Total Lysine Substitution ([4]; 15 min) | % Total Lysine Substitution ([4]; 30 min)
O=C(CCc1cccnc1)Oc1ccc([N+](=O)[O-])cc1 [Compound D, 4-Nitrophenyl-3-(pyridin-3-yl)propanoate] | (0.19) % | (0.41) % | (0.78) % | (1.07) % | (0.68) % | (3.51) % | (15.72) % | (25.42) % | (42.66) % | (65.36) % | (4.22) % | (8.89) % | (16.40) % | (34.28) % | (57.91) % | 91.66% | 100%
O=C(CCc1cccnc1)Oc1c(F)cccc1F [Compound B, 2,6-Difluorophenyl-3-(pyridin-3-yl)propanoate] | (0.33) % | (0.54) % | (0.98) % | (2.05) % | (1.67) % | (18.10) % | (30.25) % | (43.26) % | (56.93) % | (70.96) % | (8.58) % | (14.88) % | (25.92) % | (43.06) % | (63.71) % | 99.80% | 100%
O=C(CCc1cccnc1)ON1C(=O)CCC1=O [Compound E, 2,5-Dioxo-1-pyrrolidinyl 3-pyridinepropanoate] | (9.37) % | (9.21) % | (9.27) % | (5.79) % | (2.95) % | (92.96) % | (94.85) % | (95.25) % | (95.31) % | (95.08) % | (67.92) % | (79.23) % | (88.41) % | (92.23) % | (95.37) % | 100% | –
